The source of these data is article PMC539286.

Protein sequences, listed by entry. Tags and fused reporters are not part of them. Lines headed by an entry give the natural chain unless they say otherwise; changes in a name come on top.
UniProt P11166, whole entry: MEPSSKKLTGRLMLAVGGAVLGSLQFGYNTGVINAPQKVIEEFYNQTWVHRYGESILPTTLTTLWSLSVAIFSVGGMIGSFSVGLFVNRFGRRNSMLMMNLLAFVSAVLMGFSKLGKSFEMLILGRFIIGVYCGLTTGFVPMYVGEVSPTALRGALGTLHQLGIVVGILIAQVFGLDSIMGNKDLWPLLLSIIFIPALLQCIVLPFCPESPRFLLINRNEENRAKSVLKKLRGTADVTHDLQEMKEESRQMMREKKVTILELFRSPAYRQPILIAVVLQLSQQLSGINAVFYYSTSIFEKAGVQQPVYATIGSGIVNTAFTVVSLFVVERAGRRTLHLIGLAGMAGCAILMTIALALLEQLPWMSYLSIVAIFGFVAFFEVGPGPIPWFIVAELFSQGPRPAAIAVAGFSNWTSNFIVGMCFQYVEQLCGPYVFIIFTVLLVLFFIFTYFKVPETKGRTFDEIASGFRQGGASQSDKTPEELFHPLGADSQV

Positions count from the first letter of the chain named. Names and notes keep the numbering of the source. Like-named read-outs stand apart in the source and are kept apart here. These are yes or no findings as the source states them, for the method shown. Some binding calls cover weakened binding; strength is not graded here. For part of these data: Where a sequence is shown, tags or fusion partners need not be part of it.

Assay [1] deals with HTLV receptor (Glut1, the ubiquitous vertebrate glucose transporter) on human cells (human (endogenous in 293T)) (UniProt P11166). Kind of assay: flow cytometry on cells; data not shown: cell surface binding of H2_(178)SU carrying the same mutations as the H1_(215)SU mutants; cells and tag not stated.
Assay [2] deals with T1, HTLV receptor (Glut1) on murine fibroblasts (mouse (endogenous in NIH3T3)) (UniProt P17809).
T1 sequence: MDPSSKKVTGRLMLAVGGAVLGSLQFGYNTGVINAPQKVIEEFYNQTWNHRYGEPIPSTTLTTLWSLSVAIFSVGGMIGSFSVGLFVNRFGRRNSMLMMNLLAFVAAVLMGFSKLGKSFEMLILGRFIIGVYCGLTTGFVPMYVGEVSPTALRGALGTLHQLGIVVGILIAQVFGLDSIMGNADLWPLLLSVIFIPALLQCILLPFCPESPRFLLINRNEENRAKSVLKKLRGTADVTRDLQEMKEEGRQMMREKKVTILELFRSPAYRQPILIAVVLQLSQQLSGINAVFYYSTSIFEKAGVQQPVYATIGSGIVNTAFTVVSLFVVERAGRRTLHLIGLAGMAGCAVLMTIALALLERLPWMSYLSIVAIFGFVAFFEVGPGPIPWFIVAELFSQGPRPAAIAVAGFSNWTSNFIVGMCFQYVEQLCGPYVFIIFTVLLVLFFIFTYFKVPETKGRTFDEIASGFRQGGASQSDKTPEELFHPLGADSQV
Kind of assay: flow cytometry on cells; 300 ul conditioned medium of transfected 293T cells with rFc-tagged soluble SU on 5 x 10^5 target cells detached with PBS-EDTA, 30' at 37°C, anti-rabbit-IgG FITC; target cells A23, 293T, NIH3T3, NIH3T3TK^-, HeLa, D17, Jurkat, activated primary human T cells.

Assay [3] concerns the target HTLV receptor (Glut1, the ubiquitous vertebrate glucose transporter) on human cells (human (endogenous in 293T)) (UniProt P11166). The assay is described as above.
Assay [4] has the same target. Kind of assay: flow cytometry on cells; binding interference: 293T cells transfected with Env or rFc-tagged SU subdomain vectors, 24 and 48 h later incubated with the challenging soluble H2_(178)SU-HA; 12CA5 anti HA antibody and anti-mouse-IgG FITC. In general terms: In flow cytometry, cells or beads pass a laser one at a time.
Assay [5] has the same target. Nature of the assay: flow cytometry on cells; 300 ul conditioned medium of transfected 293T cells with rFc-tagged soluble SU on 5 x 10^5 target cells detached with PBS-EDTA, 30' at 37°C, anti-rabbit-IgG FITC; target cells A23, 293T, NIH3T3, NIH3T3TK^-, HeLa, D17, Jurkat, activated primary human T cells. This is another data set of the same source.
In assay [6] the target is T1, HTLV receptor (Glut1) on murine fibroblasts (mouse (endogenous in NIH3T3)). Described as above. This is another data set of the same source.

Turning to “H2_(178)SU with the mutation that corresponds to HTLV-1 Y114A (Tyr110 of HTLV-2 Env to Ala) (from UniProt P03383 19-178) (domain or fragment)”, the binding entry in assay [1] was “binds weakly”.

“H2_(178)SU with the mutation that corresponds to HTLV-1 R94A (Arg90 of HTLV-2 Env to Ala) (from UniProt P03383 19-178) (domain or fragment)”: the binding entry in assay [1] was “binds”.

Take “H2_(178)SU, soluble HTLV-2 SU amino terminal subdomain without the PRRH, rFc-tagged (from UniProt P03383 19-178) (Fc fusion)”: the binding result in assay [1], in assay [2] and in assay [3] was “binds” in each case.

As for “H2_(178)SU with the mutation that corresponds to HTLV-1 S101A (Ser97 of HTLV-2 Env to Ala) (from UniProt P03383 19-178) (domain or fragment)”, the binding result in assay [1] is reported as “binds”.

For the molecule “H1_(183)FEnv, chimeric HTLV-1/F-MLV Env (from UniProt P23064 21-183; P03390 270-675)”, in assay [4], the binding result is reported as “binds”.

Turning to “H2_(211)SU, soluble HTLV-2 SU amino terminal subdomain with the PRRH, rFc-tagged (from UniProt P03383 19-211) (Fc fusion)”, the binding result in assay [2] and in assay [3] was “binds” throughout.

Take “H2_(178)SU-HA, HA-tagged soluble HTLV-2 SU amino terminal subdomain (from UniProt P03383 19-178) (domain or fragment)”: in assay [4], the binding entry is reported as “binds”.

B1: H1(R94A)SU, H1_(215)SU subdomain with Arg94 mutated to Ala (Fc fusion, UniProt P23064 21-215)
chain: DYSPSCCTLTIGVSSYHSKPCNPAQPVCSWTLDLLALSADQALQPPCPNLVSYSSYHATYSLYLFPHWIKKPNANGGGYYSASYSDPCSLKCPYLGCQSWTCPYTGAVSSPYWKFQQDVNFTQEVSRLNINLHFSKCGFPFSLLVDAPGYDPIWFLNTEPSQLPPTAPPLLPHSNLDHILEPSIPWKSKLLTLVQ
For the molecule B1, the binding result in assay [5] is reported as “binds”.

B2: H1_(215)SU, soluble HTLV-1 SU amino terminal subdomain with the PRRH, rFc-tagged (Fc fusion, UniProt P23064 21-215)
chain: B1 chain with A74R
On to B2, for which the binding result in assay [6] and in assay [5] was “binds” in each case.

B3: H1(D106A)SU, H1_(215)SU subdomain with Asp106 mutated to Ala (Fc fusion, UniProt P23064 21-215)
chain: B1 chain with A74R, D86A
With B3, the binding result in assay [5] is given as “binds”.

B4: H1(S101A)SU, H1_(215)SU subdomain with Ser101 mutated to Ala (Fc fusion, UniProt P23064 21-215)
chain: B1 chain with A74R, S81A
On to B4, for which, in assay [5], the binding entry is on record as “binds”.
